PubChem BioAssay AID1259308 – NCATS, 2017
Purpose: 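Genes whose loss raises luciferase production in HEK293 cells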 (primary screen). Cells: human HEK293 embryonic kidney cells stably expressing firefly luciferase (HEK-CMV-Luc2-Hygro). Knock-down reagent: single siRNA against human genes, 0.8 pmol siRNA per well. Timing: 72 h. Detection: 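Luciferase light (ONE-Glo) measured on one replicate plate set and viability (CellTiter-Glo) on the other, scaled to a negative control siRNA, with robust z-scores and luciferase per cell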. Reading the numbers: total luciferase, z-score: higher = more reporter protein produced. Call rule: 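An siRNA counts as active if its total luciferase robust z-score exceeds 3; genes with two or more such siRNAs out of three were retested with fresh siRNAs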. Calls: active = raised luciferase; inactive = no rise.
In all, the deposit lists about 59,000 reagents; below is a random part of them. In the full data, about 1,510 (2.6%) got an active call. 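Calls use total luciferase alone and ignore viability, so some active siRNAs may act by altering cell number.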 The numbers tell different reagents against one gene apart. Further read-outs or replicates are left out here. No sequences are given here.

no.	gene	reagent no.	total luciferase, z-score	outcome
1	SLC26A11	1	1.56	inactive
2	SLC26A11	2	0.347	inactive
3	SLC26A11	3	0.333	inactive
4	CDH13	1	-1.5	inactive
5	CDH13	2	-0.646	inactive
6	CDH13	3	0.524	inactive
7	ANKRD16	1	1.47	inactive
8	ANKRD16	2	0.709	inactive
9	ANKRD16	3	-1.28	inactive
10	TFEB	1	-0.579	inactive
11	TFEB	2	-1.12	inactive
12	TFEB	3	-1.83	inactive
13	TMEM52B	1	-1.19	inactive
14	TMEM52B	2	-0.422	inactive
15	TMEM52B	3	0.548	inactive
16	ZNF552	1	-0.0312	inactive
17	ZNF552	2	1.55	inactive
18	ZNF552	3	-0.126	inactive
19	CRABP1	1	-0.404	inactive
20	CRABP1	2	2.26	inactive
21	CRABP1	3	-0.36	inactive
22	THBS4	1	0.261	inactive
23	THBS4	2	0.0974	inactive
24	THBS4	3	0.0913	inactive

2 entries from above in another layout.
gene,reagent no.,"total luciferase, z-score",outcome
CRABP1,2,2.26,inactive
CRABP1,3,-0.36,inactive
